{"sequences": {"note": "Protein sequences, listed by entry. Tags and fused reporters are not part of them. Residues count along the entry.", "UniProt P15328, residues 25-234": "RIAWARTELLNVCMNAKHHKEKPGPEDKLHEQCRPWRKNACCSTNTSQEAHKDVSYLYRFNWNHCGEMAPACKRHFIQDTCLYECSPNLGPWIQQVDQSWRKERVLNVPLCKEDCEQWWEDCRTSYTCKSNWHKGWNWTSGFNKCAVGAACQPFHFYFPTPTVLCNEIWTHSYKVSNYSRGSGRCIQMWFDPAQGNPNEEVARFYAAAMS"}, "source": "patent US20240382619A1", "binders": {"B1": {"name": "GNSTM-LAMP2-ΔEC/IC-SKOV3 expression product shown on exosomes (cancer targeting peptide …, folate receptor binding peptide, at the target peptide position of … (peptide, not shown: small tags and cut ends; large carriers)", "chain": "MHTAPGWGYNLS"}}, "key": {"[1]": {"molecular_target": "folate receptor on SKOV3 ovarian cancer cells (UniProt P15328)", "experiment": "fluorescence microscopy of SKOV3 cells treated with PKH67-stained exosomes"}, "[2]": {"molecular_target": "folate receptor on SKOV3 ovarian cancer cells (UniProt P15328)", "experiment": "fluorescence microscopy (Cytation 5) of SKOV3 cells incubated 24 h with PKH67-stained exosomes displaying the peptide"}}, "note": "These are yes or no findings as the source states them, for the method shown. Some results given as binding are weak or reduced against the parent protein; the word gives no strength.", "data": [{"binder": "B1", "values": [{"measurement": "binding", "setting": "[1]", "value": "binds"}, {"measurement": "binding", "setting": "[2]", "value": "binds"}]}]}
